Patent US4304864A, “Long-chain acyl-coenzyme-A synthetase” (Mitsubishi Chemical Industries, Limited, priority 1978, dated 1981)

Tested on: acyl-CoA synthetase
Assay: Enzymatic determination of fatty acids, decrease of NADH (Reference Examples 1 and 2)
Assay type: biochemical, Candida lipolytica
Details: 10 nmol of fatty acid; reaction period 20 minutes

| SMILES | ΔO.D. at 334 nm |
| --- | --- |
| CCCCCCCCCCCCCCCCCC(=O)O [Stearic acid] | 0.230 |

Same assay, conditions: 10 nmol of fatty acid; theoretical value 0.246

| SMILES | ΔO.D. at 334 nm |
| --- | --- |
| CCCCC/C=C\C/C=C\CCCCCCCC(=O)O [Linoleic acid] | 0.240 |
| CC/C=C\C/C=C\C/C=C\CCCCCCCC(=O)O [Linolenic acid] | 0.250 |
| CCCCCCCCCCCCCC(=O)O [Myristic acid] | 0.210 |
| CCCCCCCC/C=C\CCCCCCCC(=O)O [Oleic acid] | 0.240 |
| CCCCCCCCCCCCCCCC(=O)O [Palmitic acid] | 0.245 |
| CCCCCC/C=C\CCCCCCCC(=O)O [Palmitoleic acid] | 0.235 |
